Results are given in words; binding and its absence hold for the method and conditions named. Binding seen in cells or lysates may run through a third protein. Some results given as binding are weak or reduced against the parent protein; the word gives no strength.
Target: SH3 and multiple ankyrin repeat domains 3 (SHANK3) (mouse or rat (endogenous in brain lysate; legend says mice, text says rat)) (UniProt Q4ACU6)
Experiment: co-IP; μMACS magnetic beads loaded with Shank3 antibodies; brain lysate; ZIP4 detected in input and eluate; empty beads as control

By UniProt entry, the sequences of proteins in these tests, tags left out.
UniProt Q4ACU6: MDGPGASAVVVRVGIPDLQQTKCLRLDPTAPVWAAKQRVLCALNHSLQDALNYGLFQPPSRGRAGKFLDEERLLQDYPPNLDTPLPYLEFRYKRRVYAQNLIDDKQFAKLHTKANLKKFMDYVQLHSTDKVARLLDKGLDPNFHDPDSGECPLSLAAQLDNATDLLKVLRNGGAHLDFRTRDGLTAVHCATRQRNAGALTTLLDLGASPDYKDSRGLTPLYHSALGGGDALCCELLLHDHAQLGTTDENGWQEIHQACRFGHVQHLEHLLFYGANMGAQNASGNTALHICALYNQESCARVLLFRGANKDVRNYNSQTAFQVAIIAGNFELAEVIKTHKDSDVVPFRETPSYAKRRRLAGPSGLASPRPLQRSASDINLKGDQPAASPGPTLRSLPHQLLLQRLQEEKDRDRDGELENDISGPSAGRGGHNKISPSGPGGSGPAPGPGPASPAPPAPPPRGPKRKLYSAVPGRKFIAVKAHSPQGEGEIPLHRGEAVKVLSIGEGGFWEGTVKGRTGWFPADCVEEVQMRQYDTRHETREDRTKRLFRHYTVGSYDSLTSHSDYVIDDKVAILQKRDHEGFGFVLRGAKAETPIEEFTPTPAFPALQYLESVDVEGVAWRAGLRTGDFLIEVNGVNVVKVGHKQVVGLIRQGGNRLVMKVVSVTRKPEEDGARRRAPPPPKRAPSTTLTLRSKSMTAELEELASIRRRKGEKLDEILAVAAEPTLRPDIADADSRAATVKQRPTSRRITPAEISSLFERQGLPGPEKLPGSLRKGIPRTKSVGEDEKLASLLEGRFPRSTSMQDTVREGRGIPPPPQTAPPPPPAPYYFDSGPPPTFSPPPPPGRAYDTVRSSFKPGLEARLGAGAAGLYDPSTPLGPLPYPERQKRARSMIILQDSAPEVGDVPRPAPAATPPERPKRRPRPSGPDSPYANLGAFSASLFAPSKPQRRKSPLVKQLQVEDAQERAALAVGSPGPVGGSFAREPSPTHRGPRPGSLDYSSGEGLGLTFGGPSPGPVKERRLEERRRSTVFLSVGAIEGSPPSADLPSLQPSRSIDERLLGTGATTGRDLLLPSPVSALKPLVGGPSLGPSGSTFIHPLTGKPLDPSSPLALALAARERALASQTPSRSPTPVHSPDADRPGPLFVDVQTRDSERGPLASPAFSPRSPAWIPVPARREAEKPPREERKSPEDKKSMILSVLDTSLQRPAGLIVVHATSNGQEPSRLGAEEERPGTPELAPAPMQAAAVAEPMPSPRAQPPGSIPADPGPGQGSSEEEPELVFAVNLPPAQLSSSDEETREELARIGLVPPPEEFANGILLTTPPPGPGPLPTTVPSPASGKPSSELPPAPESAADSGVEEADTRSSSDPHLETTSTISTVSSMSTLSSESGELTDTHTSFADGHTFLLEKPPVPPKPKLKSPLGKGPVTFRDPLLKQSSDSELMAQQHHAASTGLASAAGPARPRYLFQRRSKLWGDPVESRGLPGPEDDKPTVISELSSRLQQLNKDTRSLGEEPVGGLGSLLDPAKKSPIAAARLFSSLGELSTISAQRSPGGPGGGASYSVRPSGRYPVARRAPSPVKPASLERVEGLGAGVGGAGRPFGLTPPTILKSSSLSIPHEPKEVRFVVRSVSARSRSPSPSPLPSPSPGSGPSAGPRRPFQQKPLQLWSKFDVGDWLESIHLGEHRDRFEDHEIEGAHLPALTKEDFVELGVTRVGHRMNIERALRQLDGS

B1: ZIP4 (protein, UniProt Q78IQ7 23-660)
chain: RPRNLLSLLALGQGALDRLELDGLLNTLVARVHCTDGPCEKCLSVENVLALGKPDKPQPAPESVLESRHIIYLSAAAALYLNNPEKTCKDIQAGLLASHVDDYLATLESPEAMTLGLSQLLQKIEAHAASQPTGEKTCVDLPQLLEEAEAAGVSKSAGLVLTALLDHVINGSCFQGLPSPQYFVDFVFRLHSSDPPNITLHELENLMHHLGVGGEDHSDHDDHGDHADHSHPDRKASHQDSELHTPHNSNSSVWDTLCLSAKDIMAVYGLSEEAGVSPQAWAQLTPALVQQQLSGACSPYPTIRIQDQLSQTERYLYGSLATLLICLCAVFGLLLLTCAKCSTATHYIMQTFLSLAVGALTGDALLHLIPKVLGLHTHGGEGHTHEEEVGVGGQATWRLLAVLGGFYIFFLFESFFNLLLPRDQDSEKDGPCSHGGHSHGISLQLAPSNLRQSKQTHESSRSDLVAEETPELLNPETRRLRAELRLLPYLITLGDAVHNFADGLAVGAAFSSSWKTGLATSLAVFCHELPHELGDFAALLHAGLSVKRALLLNLASALTAFAGLYVALAVGVGEEGEAWILAVATGLFLYVALCDMLPAMMNVRDQRPWLLFLLHNVGLLGGWTVLLLLSLYEDNITF
- binding: binds
